In PMC11208599:

Molecular target: TNIP3 expressed from adenovirus in cardiomyocytes
Assay: co-IP; cardiomyocytes infected with the indicated adenovirus

B1: STAT1 in cardiomyocytes (protein, UniProt Q9QXK0 1-749)
chain: MSQWFELQQLDSKFLEQVHQLYDDSFPMEIRQYLAQWLEKQDWEHAAYDVSFATIRFHDLLSQLDDQYSRFSLENNFLLQHNIRKSKRNLQDNFQEDPVQMSMIIHNCLKEERKILENAQRFNQAQEGNIQNTVMLDKQKELDSKVRNVKDQVMCIEHEIKTLEDLQDEYDFKCKTSQNRESEANGVAKSDQKQEQLLLHKMFLMLDNKRKEIIHKIRELLNSIELTQNTLINDELVEWKRRQQSACIGGPPNACLDQLQSWFTIVAESLQQVRQQLKKLEELEQKFTYEQDPITKNKQVLSDRTFVLFQQLIQSSFVVERQPCMPTHPQRPLVLKTGVQFTVKLRLLVKLQELNYNLKVKVSFDKDVNEKNTVKGFRKFNILGTHTKVMNMEESTNGSLAAEFRHLQLKEQKNAGNRTNEGPLIVTEELHSLSFETQLCQPGLVIDLETTSLPVVVISNVSQLPSGWASILWYNMLVTEPRNLSFFLNPPCAWWSQLSEVLSWQFSSVTKRGLNADQLSMLGEKLLGPNAGPDGLIPWTRFCKENINDKNFSFWPWIDTILELIKKHLLCLWNDGCIMGFISKERERALLKDQQPGTFLLRFSESSREGAITFTWVERSQNGGEPDFHAVEPYTKKELSAVTFPDIIRNYKVMAAENIPENPLKYLYPNIDKDHAFGKYYSRPKEAPEPMELDDPKRTGYIKTELISVSEVHPSRLQSTENLLPMSPEEFDEMSKIVGSEFDSMMSAV
With B1 the binding was “binds”.

No constants are given. Whether binding was seen depends on the method and setting. Binding seen in cells or lysates may run through a third protein. Binding calls can cover weak binding; strength is not graded here.
